Results on one substance are retold here after paper PMC8517208.

This assay deals with T1, murine EpCAM in fusion with yellow fluorescent protein (YFP) at the C-terminus, in mF9 cells (murine) (UniProt Q99JW5).
T1 sequence: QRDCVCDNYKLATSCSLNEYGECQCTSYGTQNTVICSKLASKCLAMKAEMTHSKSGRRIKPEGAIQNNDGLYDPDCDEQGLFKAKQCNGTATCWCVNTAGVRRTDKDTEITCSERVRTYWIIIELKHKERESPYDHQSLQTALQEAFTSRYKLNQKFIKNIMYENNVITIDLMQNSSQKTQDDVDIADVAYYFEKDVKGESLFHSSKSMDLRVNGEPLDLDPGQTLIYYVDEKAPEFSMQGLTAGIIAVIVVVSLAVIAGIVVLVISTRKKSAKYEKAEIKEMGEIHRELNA
As to the kind of experiment: co-IP; whole-cell lysates of mF9 cells stably expressing EpCAM-YFP or YFP; 4 mg lysate, GFP-Trap agarose beads; washed with 0.5% tween in TBS; immunoblot of endogenous partners. A general note: Immunoblotting shows a protein as a band on a membrane.

No constants are given. Whether binding was seen depends on the method and setting. In cells and extracts the contact can be indirect. A result given as binding can be weak or reduced; the word gives no strength. Where a sequence is shown, tags or fusion partners need not be part of it.

In the case of Rab5 (mouse (endogenous in mF9)), the binding result was “binds”.
